Measured data: PubChem BioAssay AID1259254 (NCATS, 2017)
This is an unselected part of about 59,000 deposited reagents. About 1,550 of all reagents (2.6%) count as active. 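G2 share is only a proxy for re-replication; each gene was hit by three separate siRNAs, and active genes were retested.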 The raw values are shown without normalisation. No sequences are given here. Not given: the amount of reagent.

Test: 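Finding genes that stop cells copying their DNA twice in one cycle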 (primary screen)
System: human HCT116 colorectal cancer cells
Knock-down reagent: single siRNA against human genes
Time to read-out: 3 days
Read-out: 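Nuclei stained with Hoechst and imaged; cell-cycle phase assigned by DNA content; G2 share scaled per plate, non-targeting siRNA 0%, GMNN siRNA 100%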
Reading the numbers: G2 robust z-score and G2 cells, % of GMNN control: higher = more G2 cells, more excess DNA replication; raw share of cells in G2: higher = larger share of cells with G2 DNA content
Hit rule: 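Active siRNAs have a G2 robust z of 5 or more median absolute deviations over the median, which in these data means about 38% or higher of GMNN control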

gene knocked down | PubChem SID | G2 robust z-score | G2 cells, % of GMNN control | raw share of cells in G2 (%) | Call
TTC21B (GeneID 79809) | SID160749489 | -0.926 | -3.54 | 2.97 | inactive
TTC21B (GeneID 79809) | SID160749490 | 1.67 | 14.7 | 10.7 | inactive
TTC21B (GeneID 79809) | SID160749492 | -1 | -4.1 | 1.26 | inactive
MRGPRX1 (GeneID 259249) | SID160730909 | 2.13 | 18 | 8.78 | inactive
MRGPRX1 (GeneID 259249) | SID160762607 | 0.957 | 9.7 | 9.31 | inactive
MRGPRX1 (GeneID 259249) | SID160762608 | -0.132 | 2.04 | 5.23 | inactive
PPM1L (GeneID 151742) | SID160759148 | -0.102 | 2.25 | 5.53 | inactive
PPM1L (GeneID 151742) | SID160759149 | -1.27 | -5.99 | 2.5 | inactive
PPM1L (GeneID 151742) | SID160759151 | -0.862 | -3.1 | 2.56 | inactive
TMEM205 (GeneID 374882) | SID160725151 | -0.658 | -1.66 | 3.41 | inactive
TMEM205 (GeneID 374882) | SID160725153 | -0.14 | 1.98 | 4.13 | inactive
TMEM205 (GeneID 374882) | SID160725154 | 0.105 | 3.7 | 5.68 | inactive
LOC644504 (retired record) (GeneID 644504) | SID160769227 | -0.0142 | 2.87 | 4.73 | inactive
LOC644504 (retired record) (GeneID 644504) | SID160769228 | 1.42 | 13 | 7.94 | inactive
LOC644504 (retired record) (GeneID 644504) | SID160769230 | 0.0255 | 3.15 | 4.06 | inactive
BCDIN3D (GeneID 144233) | SID160758120 | -0.994 | -4.02 | 2.48 | inactive
BCDIN3D (GeneID 144233) | SID160758121 | -0.109 | 2.2 | 3.59 | inactive
BCDIN3D (GeneID 144233) | SID160758122 | 3.3 | 26.2 | 12.2 | inactive
PTP4A2 (GeneID 8073) | SID160731951 | 4.55 | 35 | 16.2 | inactive
PTP4A2 (GeneID 8073) | SID160771427 | 0.275 | 4.9 | 5.78 | inactive
PTP4A2 (GeneID 8073) | SID160771512 | -0.767 | -2.43 | 2.77 | inactive
RIOK2 (GeneID 55781) | SID160731529 | 0.466 | 6.24 | 7.51 | inactive
RIOK2 (GeneID 55781) | SID160774585 | -0.755 | -2.35 | 4.83 | inactive
RIOK2 (GeneID 55781) | SID160774606 | -1.04 | -4.35 | 2.49 | inactive
C20orf96 (GeneID 140680) | SID160757820 | -0.387 | 0.242 | 4.27 | inactive
C20orf96 (GeneID 140680) | SID160757821 | 1.75 | 15.3 | 7.95 | inactive
C20orf96 (GeneID 140680) | SID160757822 | -0.633 | -1.49 | 2.04 | inactive
EIF2B4 (GeneID 8890) | SID160721070 | -1.14 | -5.03 | 2.91 | inactive
EIF2B4 (GeneID 8890) | SID160721071 | 0.221 | 4.52 | 6.85 | inactive
EIF2B4 (GeneID 8890) | SID160721072 | 2.33 | 19.4 | 13.3 | inactive
